Data from PubChem BioAssay AID540276 (National Center for Advancing Translational Sciences (NCATS), 2011).
About 5,400 (1.8%) of roughly 300,000 compounds were called active. This list was built around the results that the source calls inconclusive (neither active nor inactive); the mix of calls is not that of the screen. The call rests on the fitted dose curve; tested in HEK293 cells. A potency beside an inconclusive call is a rough fit, not a confirmed value.

Experiment: qHTS for inhibitors of binding or entry into cells for Marburg Virus
Settings: Marburg virus pseudotyped entry inhibition, cell reporter; activity change, negative = inhibition: at 37.8 µM (top of the series) unless noted
On the % scale 0 is the no-effect control and ±100 the full control effect; potency means the concentration at half of the fitted maximal effect.

Structure (SMILES)	activity change, negative = inhibition	Potency
O=C1Nc2ccccc2/C1=N\N=C\c1ccc(O)c(O)c1	inactive: -3.03%	–
Cc1cccc(CCNC(=O)CCc2c(C)nc3c(c(C)nn3-c3ccccc3)c2C)c1	–	inconclusive: 0.316 µM [inhibitor, full curve, poor fit]
O=C(NC1CCCCCCC1)c1ccccc1O	–	inconclusive: 8.91 µM [activator, partial curve, poor fit]
COc1ccc(Cl)cc1-c1nc(-c2ccncc2)no1	inactive: 19.5%	–
CC1CCCCC1NC(=O)COC(=O)COc1ccc(Cl)cc1 (configuration not stated)	–	inconclusive: 11.2 µM [activator, single point]
CCOC(=O)c1cc2c(=O)n3ccccc3nc2n(C(C)C)c1=NC(=O)c1c(-c2c(F)cccc2Cl)noc1C	–	inconclusive: 15.8 µM [inhibitor, partial curve, poor fit]
COc1cccc2c3cccc(OC)c3c3[nH]cnc3c12	–	inconclusive: 35.5 µM [inhibitor, single point]
Cc1ccnn1CC(=O)N/N=C/c1cn[nH]c1-c1ccccc1	–	inconclusive: 3.98 µM [inhibitor, single point]
CC(C)c1ccc(/C=C2\C(=O)N(CCN3CCOCC3)C(=S)N2C)cc1	–	inconclusive: 35.5 µM [inhibitor, single point]
COc1ccc(C2CC(c3ccccc3)n3nc(NC(=O)c4cccs4)nc3N2)cc1 (configuration not stated)	–	inconclusive: 35.5 µM [inhibitor, single point]
CC1(C)Oc2ccc3ccc(=O)oc3c2/C(=C/Nc2cccc(O)c2)C1=O	–	inconclusive: 11.2 µM [inhibitor, single point]
CCCOc1ccc(C(=O)C(CCC(CNCC)C(=O)c2ccc(OCCC)cc2)CNCC)cc1 (configuration not stated)	–	inconclusive: 9.2 µM [inhibitor, partial curve, poor fit]
Cc1ccc(NC(=O)C2COc3ccccc3O2)cc1C (configuration not stated)	inactive: 4.18%	–
O=C(COC(=O)c1ccc(NS(=O)(=O)c2cccs2)cc1O)NCc1ccccc1	–	inconclusive: 6.31 µM [inhibitor, single point]
CC(C)(C)Nc1nc(N2CCCC2)nc(N2CCCC2)n1	–	inconclusive: 6.31 µM [inhibitor, partial curve]
O=C(c1ccccc1-c1nc(-c2ccc(Cl)cc2)no1)N1CCCC1	–	inconclusive: 2.91 µM [activator, single point]
COc1ccc(C(=O)C2CCCN(Cc3cc(Cl)ccc3O)C2)c(OC)c1 (configuration not stated)	–	inconclusive: 11.2 µM [inhibitor, partial curve, poor fit]
CCc1ccc(C(=O)/C=C/c2ccc([N+](=O)[O-])o2)cc1	–	inconclusive: 31.6 µM [inhibitor, single point]
Cc1ccc(C2(C)NC(=O)N(CC(=O)Nc3c(C)n(C)n(-c4ccccc4)c3=O)C2=O)cc1 (configuration not stated)	–	inconclusive: 12.6 µM [activator, single point]
Cc1ccc(NC(=O)c2cn(CCC#N)nc2-c2cccs2)c([N+](=O)[O-])c1	–	inconclusive: 0.501 µM [inhibitor, full curve, poor fit]
CN(C(=O)CSCC(=O)Nc1ccc(Cl)cc1)C1CCCCC1	–	inconclusive: 17.8 µM [inhibitor, single point]

Structure (SMILES)	activity change, negative = inhibition	Potency
CCCCCSc1nc2c(cnn2-c2ccc(F)cc2)c(=O)[nH]1	–	inconclusive: 35.5 µM [activator, single point]
O=C(COc1ccccc1)Nc1ccc(Cl)c(-c2nc3ncccc3o2)c1	inactive: -2.25% [at 46.1 µM]	–
O=C(NC12CC3CC(CC(C3)C1)C2)OCCNC1CCCCC1	–	inconclusive: 14.1 µM [inhibitor, single point]
Cc1nn(-c2ccccc2)c(N)c1N=Nc1ccc(Cl)cc1	–	inconclusive: 11.2 µM [inhibitor, single point]
CCOC(=O)c1cc2[nH]c3ccccc3c2[n+](-c2ccc([N+](=O)[O-])cc2)c1C	–	inconclusive: 6.51 µM [inhibitor, full curve, poor fit]
COc1ccc(CN(CCN(C)C)Cc2ccccc2)c(OC)c1	–	inconclusive: 29.1 µM [inhibitor, single point]
COC(=O)CC=C1c2ccccc2C[C@H](OC)[C@@H]1C	inactive: -1.1% [at 14.2 µM]	–
COC(=O)[C@@H]1CC[C@H](C)[C@@H](c2ccc(C)cc2)N1C(=O)c1ccc(C=NO[C@H](C)c2cn([C@@H]3COC[C@@H]3O)nn2)cc1	inactive: 3.66% [at 14.2 µM]	–
O=C1C=CC(=O)N1Cc1ccncc1	–	inconclusive: 1.12 µM [activator, partial curve, poor fit]
O=[N+]([O-])c1cc(-c2nc3nc4ccccc4nc3n2CCc2ccccc2)cc([N+](=O)[O-])c1	–	inconclusive: 0.0891 µM [inhibitor, full curve, poor fit]
COCCCN(C(=S)Nc1c(C)cc(C)cc1C)C(C)c1ccncc1 (configuration not stated)	–	inconclusive: 7.08 µM [activator, full curve, poor fit]
O=C(CSc1ccc(Br)cc1)NCC1(N2CCCCC2)CCCCC1	–	inconclusive: 35.5 µM [inhibitor, single point]
CCS(=O)(=O)Nc1cccc(C2=NN(S(=O)(=O)c3ccc(F)cc3)C(c3cccs3)C2)c1 (configuration not stated)	–	inconclusive: 0.112 µM [inhibitor, full curve, poor fit]
CCCCN(C(=O)/C=C/c1ccco1)c1c(N)n(Cc2ccccc2)c(=O)[nH]c1=O	–	inconclusive: 35.5 µM [activator, single point]
COc1ccccc1C(=O)Nc1ccccc1C(=O)N1C(C)CCCC1C (configuration not stated)	–	inconclusive: 3.55 µM [inhibitor, partial curve, poor fit]
CCOc1cccc(/C=N/Nc2ccc(S(=O)(=O)N(CC)CC)cn2)c1O	–	inconclusive: 1.26 µM [inhibitor, full curve, poor fit]
CCSc1nc2sc3c(c2c(=O)n1-c1ccc(C)c(Cl)c1)CCN(C(C)=O)C3	–	inconclusive: 22.4 µM [inhibitor, single point]
Cc1cccn2c(=O)c(C=NCc3ccco3)c(Nc3ccc(SC(F)F)cc3)nc12	–	inconclusive: 29.1 µM [inhibitor, single point]
N#CC1=C(N)Oc2n[nH]c(-c3cccs3)c2C1c1ccncc1 (configuration not stated)	inactive: 11.8%	–
CCOc1ccccc1N(CC(=O)NCCc1ccccc1)C(=O)CCC(=O)Nc1ccccn1	–	inconclusive: 8.91 µM [inhibitor, partial curve, poor fit]
COc1ccc(N/N=C(C)/C(=N/O)C(=O)Nc2ccccc2)cc1	–	inconclusive: 5.62 µM [inhibitor, full curve, poor fit]

Structure (SMILES)	activity change, negative = inhibition	Potency
O=C1COc2ccc(C(=O)CSc3nc4ccccc4c(=O)n3-c3ccc(Cl)c(Cl)c3)cc2N1	–	inconclusive: 5.01 µM [inhibitor, full curve, poor fit]
CCCOc1ccc(/C=C2\SC(=S)N(CC3CCCO3)C2=O)cc1 (configuration not stated)	–	inconclusive: 15.8 µM [activator, partial curve, poor fit]
O=C(c1ccc(Cl)cc1)C1CCCN(Cc2cccn2-c2cccnc2)C1 (configuration not stated)	inactive: -39% [at 46.1 µM]	–
O=C(COc1ccccc1Cl)Nc1ccc2nc(SCC(=O)N3CCOCC3)sc2c1	–	inconclusive: 3.16 µM [activator, partial curve, poor fit]
CC1CCC(C(C)C)C(OCC(O)CN2CCN(Cc3ccccc3)CC2)C1 (configuration not stated)	–	inconclusive: 10 µM [inhibitor, partial curve, poor fit]
COc1ccc(NC(=O)C(NCC(C)C)c2ccccc2)cc1Cl (configuration not stated)	inactive: -19% [at 46.1 µM]	–
CCCc1cc(=O)n2[nH]c(C(F)(F)F)nc2n1	–	inconclusive: 5.62 µM [activator, single point]
O=[N+]([O-])c1ccc(Sc2cc[n+]([O-])c3ccccc23)c([N+](=O)[O-])c1	–	inconclusive: 20 µM [inhibitor, single point]
CC(C)(C)c1ccccc1OCCCCN1CCCC1	–	inconclusive: 22.4 µM [inhibitor, single point]
Cc1c(C(C)C)c(=O)n(-c2ccc(S(=O)(=O)NC3CCCCC3)cc2)n1C	–	inconclusive: 8.91 µM [inhibitor, partial curve]
COc1ccc(Cl)cc1NC(=O)NC(C)C(C)(C)C (configuration not stated)	–	inconclusive: 35.5 µM [inhibitor, single point]
Cc1cc(OCC(=O)NC2CC(C)(C)NC(C)(C)C2)c(C)cc1Br	–	inconclusive: 35.5 µM [inhibitor, single point]
COc1cccc(C2C3=C(CC(C)(C)CC3=O)OC(N)=C2[N+](=O)[O-])c1 (configuration not stated)	–	inconclusive: 0.0058 µM [inhibitor, full curve, poor fit]
COc1ccc(Nc2cc(C(=O)NCc3ccco3)c3ccccc3n2)c(OC)c1	–	inconclusive: 0.0073 µM [inhibitor, full curve, poor fit]
CCOC(=O)c1c2n(c3ccc(O)cc13)CCC2	–	inconclusive: 2.51 µM [activator, partial curve, poor fit]
COc1ccc(CN=C(Nc2ccccc2)SC2CC(=O)NC2=O)cc1 (configuration not stated)	inactive: -0.852% [at 46.1 µM]	–
N#CC1=C(N)N2C(=C(C#N)C1c1ccc(Br)cc1)Nc1ccccc12 (configuration not stated)	–	active: 9.2 µM
CC(C)c1ccc2[nH]c3nc(SCC(=O)N4CCOCC4)nnc3c2c1	–	inconclusive: 6.31 µM [inhibitor, full curve, poor fit]
CC1CC(C)CN(CCCNS(=O)(=O)c2ccc3c(c2)oc(=O)n3C)C1 (configuration not stated)	inactive: 16.8%	–
OC(CN1CCN(c2ccccc2Cl)CC1)c1ccccc1 (configuration not stated)	–	inconclusive: 8.91 µM [inhibitor, partial curve, poor fit]

Ordered by length of the SMILES (high to low): twelve of the compounds above.
Structure (SMILES)	activity change, negative = inhibition	Potency
O=C1COc2ccc(C(=O)CSc3nc4ccccc4c(=O)n3-c3ccc(Cl)c(Cl)c3)cc2N1	–	inconclusive: 5.01 µM [inhibitor, full curve, poor fit]
COc1cccc(C2C3=C(CC(C)(C)CC3=O)OC(N)=C2[N+](=O)[O-])c1 (configuration not stated)	–	inconclusive: 0.0058 µM [inhibitor, full curve, poor fit]
Cc1c(C(C)C)c(=O)n(-c2ccc(S(=O)(=O)NC3CCCCC3)cc2)n1C	–	inconclusive: 8.91 µM [inhibitor, partial curve]
O=C(COc1ccccc1Cl)Nc1ccc2nc(SCC(=O)N3CCOCC3)sc2c1	–	inconclusive: 3.16 µM [activator, partial curve, poor fit]
CC1CC(C)CN(CCCNS(=O)(=O)c2ccc3c(c2)oc(=O)n3C)C1 (configuration not stated)	inactive: 16.8%	–
N#CC1=C(N)N2C(=C(C#N)C1c1ccc(Br)cc1)Nc1ccccc12 (configuration not stated)	–	active: 9.2 µM
O=C(c1ccc(Cl)cc1)C1CCCN(Cc2cccn2-c2cccnc2)C1 (configuration not stated)	inactive: -39% [at 46.1 µM]	–
CCCOc1ccc(/C=C2\SC(=S)N(CC3CCCO3)C2=O)cc1 (configuration not stated)	–	inconclusive: 15.8 µM [activator, partial curve, poor fit]
COc1ccc(NC(=O)C(NCC(C)C)c2ccccc2)cc1Cl (configuration not stated)	inactive: -19% [at 46.1 µM]	–
OC(CN1CCN(c2ccccc2Cl)CC1)c1ccccc1 (configuration not stated)	–	inconclusive: 8.91 µM [inhibitor, partial curve, poor fit]
CCOC(=O)c1c2n(c3ccc(O)cc13)CCC2	–	inconclusive: 2.51 µM [activator, partial curve, poor fit]
CC(C)(C)c1ccccc1OCCCCN1CCCC1	–	inconclusive: 22.4 µM [inhibitor, single point]
